# Source: patent US20170189504A1, “NOVEL PEPTIDES AND COMBINATION OF PEPTIDES FOR USE IN IMMUNOTHERAPY AGAINST VARIOUS CANCERS” (immatics biotechnologies GmbH, priority 2015, published 2017)
# Columns and labels:
# HLA-A*02 = test: Identification and relative LC-MS quantitation of HLA-A*02-presented tumor-associated peptides on tissue samples (presentation profiles, Tables 13A, 13B, 15, FIG. 1); design: species or system human; key to Presentation score NHL / Presentation score CLL / Presentation score BRCA / Presentation score AML / Presentation score GB / Presentation score NSCLC / Presentation score GBC_CCC / Presentation score UEC / Presentation score MEL / Presentation score OSCAR / Presentation score GC / Presentation score UBC / Presentation score OC / Presentation score RCC / Presentation score CRC / Presentation score PCA / Presentation score HCC / Presentation score PC / Presentation score SCLC: specifically presented on tumors (++++); very highly over-presented on tumors compared to a panel of normal tissues (+++); highly over-presented on tumors compared to a panel of normal tissues (++); over-presented on tumors compared to a panel of normal tissues (+); settings: for number of cancer tissues where the peptide was found to be presented: FIG. 1, A*02 positive samples, only samples with presentation shown; for Peptide Presentation on cancer entities: HLA-A*02-binding tumor-associated peptides
# tumor samples = test: Absolute quantitation of tumor associated peptides presented on the cell surface (copies per cell, nanoLC-MS/MS) (Table 22); design: species or system human; settings: absolute peptide quantitation in tumor samples
# HLA-A*24 = test: Identification and relative LC-MS quantitation of HLA-A*24-presented tumor-associated peptides on tissue samples (presentation profiles, Tables 14A, 14B, 16, FIG. 1); design: species or system human; key to Presentation score GC / Presentation score NSCLC / Presentation score PCA / Presentation score GB / Presentation score HCC / Presentation score RCC: specifically presented on tumors (++++); very highly over-presented on tumors compared to a panel of normal tissues (+++); highly over-presented on tumors compared to a panel of normal tissues (++); over-presented on tumors compared to a panel of normal tissues (+); settings: for Presentation score GC: gastric cancer (N = 44) vs panel of normal tissues (N = 70)
# source genes (mRNA) [1] = test: Gene and exon expression of source genes, TCGA tumor samples compared with normal tissue samples (Lonsdale, 2013) (Table 17); design: species or system human; settings: for Over-expression category of source gene (target coverage), LAML: LAML = Acute Myeloid Leukemia (N = 173); for Over-expression category of source gene (target coverage), SKCM: SKCM = Skin cutaneous melanoma (N = 473)
# source genes (mRNA) [2] = test: Expression profiling of source genes by in-house RNASeq of tumor and normal tissues (Table 18, FIG. 2); design: species or system human; key: very highly over-expressed in tumors compared to a panel of normal tissues (+++); highly over-expressed in tumors compared to a panel of normal tissues (++); over-expressed in tumors compared to a panel of normal tissues (+); settings: source gene of peptide
# [3] = Table 13A, cancer entities on which the peptide was found presented
# [4] = Table 13B, presentation on additional cancer entities
# [5] = Table 14A, HLA-A*24-binding tumor-associated peptides, cancer entities on which the peptide was found presented
substance,measurement,setting,value
39 (HLLEGSVGV; listed as Homo sapiens) [compound 39],number of cancer tissues where the peptide was found to be presented,HLA-A*02,7
same,Presentation score BRCA,"HLA-A*02; HLA-A*02 peptides, breast cancer (N = 17) vs panel of normal tissues (N = 262)",++++
same,Peptide Presentation on cancer entities,HLA-A*02; [3],BRCA
same,Peptide Presentation on cancer entities,HLA-A*02; [4],"HCC, MEL"
same,Copies per cell (median),tumor samples,+ (<100 = +)
32 (VQLDSIEDLEV; listed as Homo sapiens) [compound 32],number of cancer tissues where the peptide was found to be presented,HLA-A*02,10
same,Presentation score CLL,"HLA-A*02; HLA-A*02 peptides, chronic lymphocytic leukemia (N = 17) vs panel of normal tissues (N = 262)",++++
same,Presentation score OC,"HLA-A*02; HLA-A*02 peptides, ovarian cancer (N = 20) vs panel of normal tissues (N = 262)",++++
same,Peptide Presentation on cancer entities,HLA-A*02; [3],"CLL, OC"
same,Peptide Presentation on cancer entities,HLA-A*02; [4],"NSCLC, OC, UEC, MEL"
same,Copies per cell (median),tumor samples,++ (>=100 = ++)
164: peptide found in GZMK (gene looked up) (KFSSFSLFF; listed as Homo sapiens) [compound 164],number of cell lines where the peptide was found to be presented,"HLA-A*24; FIG. 1, A*24 positive samples, cell lines include benign prostate hyperplasias",2
same,number of cancer tissues where the peptide was found to be presented,"HLA-A*24; FIG. 1, A*24 positive samples, only samples with presentation shown",14
same,Presentation score GC,HLA-A*24; HLA-A*24 peptides,++++
same,Presentation score NSCLC,"HLA-A*24; HLA-A*24 peptides, non-small cell lung cancer (N = 91) vs panel of normal tissues (N = 70)",++++
same,Presentation score PCA,"HLA-A*24; HLA-A*24 peptides, prostate cancer (N = 40) vs panel of normal tissues (N = 70)",++++
same,Peptide Presentation on cancer entities,HLA-A*24; [5],"GC, NSCLC, PCA"
same,"Over-expression category of source gene (target coverage), DLBC","source genes (mRNA) [1]; DLBC = Lymphoid neoplasm diffuse large B-cell lymphoma (N = 48), same cutoff",A (>=50% of tumors above the cutoff)
same,"Over-expression category of source gene (target coverage), KIRC","source genes (mRNA) [1]; KIRC = Clear cell kidney carcinoma (N = 534), same cutoff","B (>= 20% of tumors above the cutoff, but <50%)"
same,"Over-expression category of source gene (target coverage), LAML",source genes (mRNA) [1]; same cutoff,"C (>=5% of tumors above the cutoff, but <20%)"
same,"Over-expression category of source gene (target coverage), SKCM",source genes (mRNA) [1]; same cutoff,"C (>=5% of tumors above the cutoff, but <20%)"
same,Expression score BRCA,source genes (mRNA) [2]; BRCA tumors vs panel of normal tissues,+
same,Expression score GBC_CCC,source genes (mRNA) [2]; gallbladder adenocarcinoma and cholangiocarcinoma (N = 3) vs panel of normal tissues,+
same,Expression score NHL,source genes (mRNA) [2]; non-Hodgkin lymphoma (N = 10) vs panel of normal tissues,+
same,Expression score NSCLC,source genes (mRNA) [2]; non-small cell lung cancer (N = 11) vs panel of normal tissues,+
same,Expression score PC,source genes (mRNA) [2]; pancreatic cancer (N = 26) vs panel of normal tissues,+
same,Expression score RCC,source genes (mRNA) [2]; renal cell carcinoma (N = 10) vs panel of normal tissues,++
same,Expression score SCLC,source genes (mRNA) [2]; small cell lung cancer (N = 10) vs panel of normal tissues,+
216: peptide found in HEATR5A (gene looked up) (QYSSVFKSL; listed as Homo sapiens) [compound 216],Peptide Presentation on cancer entities,"HLA-A*24; HLA-A*24-binding peptides, additional cancer entities, GB = glioblastoma, HCC = hepatocellular carcinoma, NSCLC = non-small cell lung cancer, PCA = prostate cancer","NSCLC, HCC"
same,Presentation score GC,HLA-A*24; HLA-A*24 peptides,++++
same,Presentation score GB,"HLA-A*24; HLA-A*24 peptides, glioblastoma (N = 18) vs panel of normal tissues (N = 70)",++++
same,Peptide Presentation on cancer entities,HLA-A*24; [5],"GB, GC"
same,"Over-expression category of source gene (target coverage), BRCA","source genes (mRNA) [1]; BRCA = Breast cancer (N = 1104), tumors more than 2-fold above highest 75% percentile of normal tissues","C (>=5% of tumors above the cutoff, but <20%)"
same,"Over-expression category of source gene (target coverage), ESCA","source genes (mRNA) [1]; ESCA = Esophageal cancer (N = 185), same cutoff","B (>= 20% of tumors above the cutoff, but <50%)"
same,"Over-expression category of source gene (target coverage), GBM","source genes (mRNA) [1]; GBM = Glioblastoma multiforme (N = 169), same cutoff","C (>=5% of tumors above the cutoff, but <20%)"
same,"Over-expression category of source gene (target coverage), LAML",source genes (mRNA) [1]; same cutoff,"C (>=5% of tumors above the cutoff, but <20%)"
same,"Over-expression category of source gene (target coverage), LGG","source genes (mRNA) [1]; LGG = Lower grade glioma (N = 534), same cutoff","B (>= 20% of tumors above the cutoff, but <50%)"
same,"Over-expression category of source gene (target coverage), LUAD","source genes (mRNA) [1]; LUAD = Lung adenocarcinoma (N = 517), same cutoff","C (>=5% of tumors above the cutoff, but <20%)"
same,"Over-expression category of source gene (target coverage), SKCM",source genes (mRNA) [1]; same cutoff,"C (>=5% of tumors above the cutoff, but <20%)"
same,"Over-expression category of source gene (target coverage), STAD","source genes (mRNA) [1]; STAD = Stomach adenocarcinoma (N = 415), same cutoff","C (>=5% of tumors above the cutoff, but <20%)"
same,Expression score GB,source genes (mRNA) [2]; glioblastoma (N = 24) vs panel of normal tissues,+

# For some assays here: For expression read-outs the peptide stands for its source gene, whose mRNA was measured; the gene is not named for every peptide.
